Patent publication US8252764B2, “Compositions and methods of use of targeting peptides against placenta and adipose tissues” (priority 2000, dated 2012)
Part of at least one peptide drawing is inferred or uncertain, most often the ends. Bridge positions count the residues as written; N and C are the ends. Square brackets hold non-standard residues; d marks the D form. Peptide text beside a SMILES is read from it.

Test system: fat vasculature
Format: in vivo
Protocol: FIG. 10. Treatment of mouse obesity with fat vasculature-targeted apoptosis. Three cohorts (n=3) of (A) high-fat cafeteria diet-fed obese c57bl/6 mice; or (B) regular diet-fed old (˜1 year) c57bl/6 mice were each subcutaneously injected daily with equimolar amounts of the indicated peptides. Mouse body mass measurement was taken on days when injections were performed (injections were skipped on days for which body mass measurement is not shown). Error bars are SEM for the measurements in three mice.
FIG. 11. Fat resorption induced by fat vasculature-targeted apoptosis. (A) Representative high-fat cafeteria diet-fed obese c57bl/6 mice; (B) and (C) representative regular diet-fed old (˜1 year) c57bl/6 mice; or (D) epididymal fat from representative regular diet-fed old c57bl/6 mice from the experiment described in FIG. 10. Whole mice (A), subcutaneous fat (B), peritoneal fat (C) and total epididymal fat (D) from the corresponding indicated treatments were photographed 1 week (A) or 3 weeks (B), (C) and (D) after the beginning of subcutaneous injections. The injected peptides were […] (SEQ ID NO:22) linked to (KLAKLAK)2 (SEQ ID NO:1) (left column), CARAC (SEQ ID NO:12) linked to (KLAKLAK)2 (SEQ ID NO:1) (middle column), and […] (SEQ ID NO:22) co-administered with (KLAKLAK)2 (SEQ ID NO:1) (right column).
FIG. 12. Destruction of fat blood vessels as a result of targeted apoptosis. (A) Tunnel immunohistochemistry, (B) secondary antibody only negative tunnel staining control and (C) and (D) hematoxylin/eosin staining of white fat of mice. (A), (B) and (C) Mice were treated with […] (SEQ ID NO:22) linked to (KLAKLAK)2 (SEQ ID NO:1). (D) Mice were treated with CARAC (SEQ ID NO:12) linked to (KLAKLAK)2 (SEQ ID NO:1). Apoptosis (arrows, (A)) and necrosis/lymphocyte infiltration (arrows, (C)) in response to […] (SEQ ID NO:22) linked to (KLAKLAK)2 (SEQ ID NO:1) treatment are indicated. Bar: 10 μm.
Stocks of […] (SEQ ID NO:22) fused to (KLAKLAK)2 (SEQ ID NO:1); (KLAKLAK)2 (SEQ ID NO:1) alone; CARAC (SEQ ID NO:12) fused to (KLAKLAK)2 (SEQ ID NO:1); and […] (SEQ ID NO:22) peptide were chemically synthesized, cyclized using the terminal cysteines and HPLC-purified to >90% (Anaspec). Lyophilized peptides were dissolved in DMSO to a concentration of 65 mM to make stock solutions. A total of 150 μl of 0.65 mM peptide solution in PBS was subcutaneously injected daily in the back of C57BL/6 males, after body mass was measured each day. High-fat cafeteria diet for obesity induction (TD97366: 25.4% fat, 21.79% protein, 38.41% carbohydrate) was purchased from Harlan Teklad. Mice were pre-fed with TD97366 prior to the initiation of treatment with adipose targeting peptides to induce diet-related obesity.

With `CC(C)C[C@@H](NC(=O)[C@@H](CCCCN)NC(=O)CNC(=O)CNC(=O)[C@@H]1CSSC[C@H](N)C(=O)N[C@@H](CCCCN)C(=O)NCC(=O)NCC(=O)N[C@@H](CCCNC(=N)N)C(=O)N[C@@H](C)C(=O)N[C@@H](CCCCN)C(=O)N[C@@H](CC(=O)O)C(=O)N1)C(=O)N[C@H](C)C(=O)N[C@H](CCCCN)C(=O)N[C@H](CC(C)C)C(=O)N[C@H](C)C(=O)N[C@H](CCCCN)C(=O)N[C@H](CCCCN)C(=O)N[C@H](CC(C)C)C(=O)N[C@H](C)C(=O)N[C@H](CCCCN)C(=O)N[C@H](CC(C)C)C(=O)N[C@H](C)C(=O)N[C@H](CCCCN)C(=O)O` (H-CKGGRAKDCGG[dK][dL][dA][dK][dL][dA][dK][dK][dL][dA][dK][dL][dA][dK]-OH; disulfide 1-9) the “histopathological analysis of white fat” value (TUNEL, hematoxylin/eosin) was “vascular apoptosis”, the “decrease in body mass” value (high-fat cafeteria diet-fed obese C57BL/6 mice, sc daily, two weeks) was “up to 20%” and the “rate of body mass reduction” value (regular diet-fed old C57BL/6 mice) was 10 % per week. For the same compound, the “reduction in body mass” value (regular diet-fed old C57BL/6 mice, sc, one month) was “greater than 35%” and the “reduction in epididymal fat mass compared with controls” value (regular diet-fed old mice, three weeks of treatment) was “greater than 3 fold”.
